Reference: patent publication US6306822A, “Phosphopeptides and methods of treating bone diseases” (Big Bear Bio, Inc., priority 1998, dated 2001)
At least one peptide structure holds a part that was inferred or is arguable (an end, a ring closure or a residue). Some entries repeat one wording, which the source may state once for all of them. Where a SMILES comes first, the peptide text is derived from it. [ ]: non-standard residue; d: D form. pS = N[C@@H](COP(=O)(O)O)C(=O)O

Assays:
ovariectomized rats [1] = assay: Ovariectomized rat osteoporosis model, femur bone mineral content by DEXA; type: in vivo, Harlan-Sprague-Dawley rats
Method: Ovariectomized rats were chosen for the efficacy study of O-phosphoserine containing polypeptides. Ovaries were surgically resected from young female Harlan-Sprague-Dawley rats. Sham-operated rats were also prepared to use as positive controls.
After 7 days acclimation, the ovariectomized (OVX) rats were randomly divided into different treatment groups (6 animals per each group). Six sham-operated rats were assigned to the positive control group. Each group was fed a normal rat diet throughout the test period but received different treatments as summarized below: […]
The test samples four groups 3, 4, 5, and 6 were dissolved in saline and administered at once. Total volume of the sample solution was 1 ml and 0.1 ml per animal for oral and parenteral administration, respectively. Oral preparations were administered once a day and injection (s.c.) was every three days.
The group receiving the highest amount of oral Pse (group 3) was used to compare the efficacy of monomeric Pse versus Pse contained in a polypeptide.
On Days 0, 45, and 90 of the treatment, the femurs of most of the participating animals were subject to DEXA (dual energy X-ray absorptiometry) measurement, a typical method by which to study the status of bone growth. The animals were anesthetized and fixed on the bed when receiving the DEXA scan. In addition, after DEXA measurement on Day 90, the animals in the selected groups were euthanized by exsanguination for postmortem examination.

ovariectomized rats [2] = assay: Ovariectomized rat model, femur bone composition analysis (dry weight, ash weight); type: in vivo, Harlan-Sprague-Dawley rats; settings: Day 90, OVX rats; versus negative (group 2) and positive (group 1) control
ovariectomized rats [3] = assay: Ovariectomized rat model, femur three point bending mechanical strength test; type: in vivo, Harlan-Sprague-Dawley rats; settings: Day 90, three point bending, OVX rats, versus positive control (sham)
[4] = system: ovariectomized rats (OVX rats); assay: Systemic BMC in postmenopausal osteoporosis model rats, 45 days oral administration (Example 2); type: in vivo; settings: for increase of systemic BMC (Bone Mineral Content): between Day 0 and Day 46, once a day oral administration for 45 consecutive days

| Structure (SMILES) | change in bone mineral content over time, measured by DEXA (ovariectomized rats [1]; between 0 and 90 days, OVX rats) | bone mineral content (BMC) measured by DEXA (ovariectomized rats [1]; Day 45, femur, OVX rats, compared with sham (positive) and OVX saline (negative) controls, doses and routes per b114 table) | bone mineral content (BMC) measured by DEXA (ovariectomized rats [1]; Day 90, femur, OVX rats) | ash weight of the femur (ovariectomized rats [2]) | dry weight of the femur (ovariectomized rats [2]) | mechanical strength of the femurs (bone initial stiffness and overall stiffness) (ovariectomized rats [3]) | increase of systemic BMC (Bone Mineral Content) [4] | BMC increasing activity, comparison between groups ([4]; once a day oral administration for 45 consecutive days, versus MP7-7 or OVX Control) | mineral and organic matrix content and mechanical strength of bone (efficacy) (ovariectomized rats [1]; ovariectomized osteoporosis rat model, oral and parenteral administration, summary of Example 1) | mechanical strength of the femurs (bone initial stiffness and overall stiffness) (ovariectomized rats [3]; listed as linear peptide of fourteen amino acids including 50% of O-phosphoserine) |
| --- | --- | --- | --- | --- | --- | --- | --- | --- | --- | --- |
| N[C@@H](COP(=O)(O)O)C(=O)NCC(=O)N[C@@H](COP(=O)(O)O)C(=O)NCC(=O)N[C@@H](COP(=O)(O)O)C(=O)NCC(=O)N[C@@H](COP(=O)(O)O)C(=O)NCC(=O)N[C@@H](COP(=O)(O)O)C(=O)NCC(=O)N[C@@H](COP(=O)(O)O)C(=O)NCC(=O)O [(Pse-Gly)6, Pse-Gly-Pse-Gly-Pse-Gly-Pse-Gly-Pse-Gly-Pse-Gly] (H-[pS]G[pS]G[pS]G[pS]G[pS]G[pS]G-OH) | With the exception of (PSE-Gly)6, all other groups showed an increase over time | – | – | – | – | – | – | – | – | – |
| N[C@@H](COP(=O)(O)O)C(=O)NCC(=O)N[C@@H](COP(=O)(O)O)C(=O)NCC(=O)N[C@@H](COP(=O)(O)O)C(=O)NCC(=O)O [(Pse-Gly)3, Pse-Gly-Pse-Gly-Pse-Gly] (H-[pS]G[pS]G[pS]G-OH) | – | close to that of the negative control | the same as that for the longer chain polypeptide (group 6) | significantly higher than those of the negative control (group 2) and similar to, or even higher than, the positive control | significantly higher than those of the negative control (group 2) and similar to, or even higher than, the positive control | identical to that of the positive control group | – | – | – | – |
| N[C@@H](CO)C(=O)NCC(=O)N[C@@H](CO)C(=O)NCC(=O)N[C@@H](COP(=O)(O)O)C(=O)NCC(=O)N[C@@H](COP(=O)(O)O)C(=O)NCC(=O)N[C@@H](COP(=O)(O)O)C(=O)NCC(=O)N[C@@H](COP(=O)(O)O)C(=O)NCC(=O)N[C@@H](COP(=O)(O)O)C(=O)NCC(=O)O [MP7-5, Ser-Gly-Ser-Gly-SerPi-Gly-SerPi-Gly-SerPi-Gly-SerPi-Gly-SerPi-Gly] (H-SGSG[pS]G[pS]G[pS]G[pS]G[pS]G-OH) | – | – | – | – | – | – | demonstrate an increase of systemic BMC | comparable BMC increasing activity with MP7-7 | – | – |
| N[C@@H](COP(=O)(O)O)C(=O)NCC(=O)N[C@@H](COP(=O)(O)O)C(=O)NCC(=O)N[C@@H](COP(=O)(O)O)C(=O)NCC(=O)N[C@@H](COP(=O)(O)O)C(=O)NCC(=O)N[C@@H](COP(=O)(O)O)C(=O)NCC(=O)N[C@@H](COP(=O)(O)O)C(=O)NCC(=O)N[C@@H](COP(=O)(O)O)C(=O)NCC(=O)O [(Pse-Gly)7, SerPi-Gly-SerPi-Gly-SerPi-Gly-SerPi-Gly-SerPi-Gly-SerPi-Gly-SerPi-Gly] (H-[pS]G[pS]G[pS]G[pS]G[pS]G[pS]G[pS]G-OH) | – | – | – | significantly higher than those of the negative control (group 2) and similar to, or even higher than, the positive control | significantly higher than those of the negative control (group 2) and similar to, or even higher than, the positive control | identical to that of the positive control group | demonstrate an increase of systemic BMC | – | significant efficacy | as high as that of positive control group |
